From the supplement of paper PMC12889115
The list shows a part of the results. Values are raw readings; no control value is given beside them.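 In the initial screen, polymyxin B was used at a concentration that permeabilizes Salmonella's outer membrane but not its inner membrane. Maximum growth was set by DMSO wells with or without polymyxin B. Since plates varied, data were ranked per plate, and compounds giving the lowest OD600 advanced as hits.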

Test system: Salmonella enterica serovar Typhimurium SL1344
Test: bacterial growth OD600 after 18 h with compound and polymyxin B; higher = more bacterial growth (less inhibition)
Conditions: 50 µM, Mueller-Hinton broth

| SMILES | bacterial growth OD600 (polymyxin B 0.75 µg/mL) | bacterial growth OD600 (polymyxin B 1 µg/mL) |
| --- | --- | --- |
| COc1ccc(F)c(CN2CCCC3(CCN(C(=O)c4cn5ccccc5n4)C3)C2)c1 (configuration not stated) | 0.844 |  |
| COC(=O)c1cccc(-c2cc(Cl)c3c(c2)CC(CNC(=O)CSC)O3)c1 (configuration not stated) | 0.441 |  |
| O=C(CCC1CCCN(CCc2ccccc2)C1)Nc1ccccc1F (configuration not stated) |  | 1.19 |
| CN(CCc1ccccn1)C(=O)CCC1CCCN(C(=O)Cn2cnc3ccccc32)C1 (configuration not stated) |  | 0.95 |
| O=C(NCc1c(F)cccc1Cl)c1cc(CN2CCCC(O)C2)on1 (configuration not stated) |  | 1.12 |
| CCc1noc(C)c1C(=O)NCc1cccnc1N(C)Cc1ccccc1 |  | 0.857 |
| CCOC(=O)N1CCN(Cc2ccc3c(c2)CN(C(=O)Cc2ccc4c(c2)OCO4)CCO3)CC1 | 0.865 |  |
| CC1CCN(Cc2nnnn2CC(=O)NC(C)c2cnn(-c3ccccc3)c2)CC1 (configuration not stated) | 0.76 |  |
| COc1ccccc1C1CN(Cc2c(C)n(C)n(-c3ccccc3)c2=O)Cc2ccccc2O1 (configuration not stated) | 0.019 |  |
| O=C(Cn1cccn1)NCc1cccnc1Oc1cccc(C(F)(F)F)c1 | 0.653 |  |
| COc1ccc(CC2(CCC(=O)N(C)Cc3nc4cc(C)c(C)cc4[nH]3)CCC(=O)N2)c(F)c1 (configuration not stated) | 0.85 |  |
| CCOc1cccc(CNC(C)c2cnn(-c3ccccc3)c2C)c1 (configuration not stated) | 0.836 |  |
| CC(c1ccon1)N(C)Cc1c(C(=O)N(C)CCc2ccccc2)nc2sccn12 (configuration not stated) |  | 0.925 |
| COc1ccc(CC2(CCC(=O)N3CCN(C4CCCCC4)C(=O)C3)CCC(=O)N2)c2ccccc12 (configuration not stated) | 0.734 |  |
| COCCCn1c(CN2CC[C@@H]3CCCC[C@H]3C2)cnc1S(=O)(=O)C1CCCC1 |  | 0.765 |
| CCc1ccc(CN2C[C@H](O)[C@@H](N3CCOCC3)C2)cc1 | 0.831 |  |

| SMILES | bacterial growth OD600 (polymyxin B 0.75 µg/mL) | bacterial growth OD600 (polymyxin B 1 µg/mL) |
| --- | --- | --- |
| Cc1ccc(CN2CCC(CN(C)Cc3nc4ccccc4[nH]3)CC2)o1 |  | 0.948 |
| Cc1ccccc1Oc1ncccc1CNCc1ccccn1 | 1.01 |  |
| COC(=O)c1ccc(CN2CCOc3ccc(C(C)(O)COc4ccccc4)cc3C2)cc1 (configuration not stated) | 0.014 |  |
| CCNC(=O)c1cn(CC(C)C)cc(C(=O)NCc2ccc(F)cc2)c1=O | 0.824 |  |
| COCC1CCCN(Cc2nc(C(c3ccccc3)c3ccccc3)no2)C1 (configuration not stated) |  | 0.691 |
| COc1ccc(Cc2noc(-c3ccc(N(C)Cc4ccon4)nc3)n2)cc1 |  | 0.822 |
| CCc1[nH]c2c(CNC(=O)CCN3CCOCC3)cc(F)cc2c1C |  | 0.96 |
| CN(CC1Cc2ccccc2O1)C(=O)c1cn(Cc2ccccc2F)nn1 (configuration not stated) |  | 0.856 |
| Cc1occc1C(=O)N1CCC(CCC(=O)N2CCN(c3ccccc3)CC2)CC1 |  | 0.919 |
| O=C(c1ccc(N2CCSCC2)nc1)N1CCC(CCn2cccn2)CC1 | 0.879 |  |
| O=C(NC1CC(=O)N(CCc2ccccc2)C1)C1CCCC1 (configuration not stated) |  | 1.12 |
| O=C(c1cccnc1)N1CCCC(CCc2ccc(F)c(F)c2)C1 (configuration not stated) | 0.153 |  |
| CC#CC(=O)N1CCc2[nH]nc(-c3cccc(OC)c3)c2C1 | 0.675 |  |
| Cc1cc(O)nc(CNC(=O)C2(N3C[C@@H](C)O[C@@H](C)C3)Cc3ccccc3C2)n1 |  | 1.06 |
| CO[C@H]1[C@H](NC(=O)c2ccncc2)c2ccccc2C12CCN(C(=O)C1=NN(C)C(=O)CC1)CC2 | 0.816 |  |
| O=C(c1ccc2[nH]nnc2c1)N1CCOC(CCc2ccccc2)C1 (configuration not stated) | 0.786 |  |

An excerpt of these results, bar-delimited:
SMILES | bacterial growth OD600 (polymyxin B 0.75 µg/mL) | bacterial growth OD600 (polymyxin B 1 µg/mL)
CCc1[nH]c2c(CNC(=O)CCN3CCOCC3)cc(F)cc2c1C |  | 0.96
CN(CC1Cc2ccccc2O1)C(=O)c1cn(Cc2ccccc2F)nn1 (configuration not stated) |  | 0.856
